For the assay, the target named is TCF4 (human (endogenous in A549)) (UniProt Q9NQB0). In words: co-IP; endogenous complexes precipitated overnight at 4°C with an anti-TCF4 antibody and Protein A magnetic beads from pre-cleared total lysates of A549 cells (serum-starved 24 h, then TGF-β1 with or without KY-05009 for 48 h); bound proteins detected by Western blot. In general terms: Immunoblotting shows a protein as a band on a membrane.

By UniProt entry, the sequences of proteins in these tests, tags left out.
UniProt Q9NQB0: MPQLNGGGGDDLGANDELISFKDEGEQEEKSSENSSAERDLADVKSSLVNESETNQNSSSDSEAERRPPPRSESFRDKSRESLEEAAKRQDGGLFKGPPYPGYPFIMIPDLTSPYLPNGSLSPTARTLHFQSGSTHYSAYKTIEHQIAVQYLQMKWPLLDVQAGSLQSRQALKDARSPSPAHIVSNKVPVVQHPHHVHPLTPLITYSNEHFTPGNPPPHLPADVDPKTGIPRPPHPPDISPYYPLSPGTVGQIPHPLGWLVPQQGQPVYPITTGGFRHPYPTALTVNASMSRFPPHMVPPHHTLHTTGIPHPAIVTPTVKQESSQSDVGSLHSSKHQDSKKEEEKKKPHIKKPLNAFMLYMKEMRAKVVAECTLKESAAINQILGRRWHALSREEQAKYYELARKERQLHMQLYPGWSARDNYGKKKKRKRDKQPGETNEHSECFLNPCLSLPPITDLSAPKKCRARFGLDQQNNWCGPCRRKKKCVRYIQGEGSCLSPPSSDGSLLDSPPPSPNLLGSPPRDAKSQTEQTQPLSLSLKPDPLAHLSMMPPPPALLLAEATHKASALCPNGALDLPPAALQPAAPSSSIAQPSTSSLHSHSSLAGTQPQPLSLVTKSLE
UniProt Q9UKE5: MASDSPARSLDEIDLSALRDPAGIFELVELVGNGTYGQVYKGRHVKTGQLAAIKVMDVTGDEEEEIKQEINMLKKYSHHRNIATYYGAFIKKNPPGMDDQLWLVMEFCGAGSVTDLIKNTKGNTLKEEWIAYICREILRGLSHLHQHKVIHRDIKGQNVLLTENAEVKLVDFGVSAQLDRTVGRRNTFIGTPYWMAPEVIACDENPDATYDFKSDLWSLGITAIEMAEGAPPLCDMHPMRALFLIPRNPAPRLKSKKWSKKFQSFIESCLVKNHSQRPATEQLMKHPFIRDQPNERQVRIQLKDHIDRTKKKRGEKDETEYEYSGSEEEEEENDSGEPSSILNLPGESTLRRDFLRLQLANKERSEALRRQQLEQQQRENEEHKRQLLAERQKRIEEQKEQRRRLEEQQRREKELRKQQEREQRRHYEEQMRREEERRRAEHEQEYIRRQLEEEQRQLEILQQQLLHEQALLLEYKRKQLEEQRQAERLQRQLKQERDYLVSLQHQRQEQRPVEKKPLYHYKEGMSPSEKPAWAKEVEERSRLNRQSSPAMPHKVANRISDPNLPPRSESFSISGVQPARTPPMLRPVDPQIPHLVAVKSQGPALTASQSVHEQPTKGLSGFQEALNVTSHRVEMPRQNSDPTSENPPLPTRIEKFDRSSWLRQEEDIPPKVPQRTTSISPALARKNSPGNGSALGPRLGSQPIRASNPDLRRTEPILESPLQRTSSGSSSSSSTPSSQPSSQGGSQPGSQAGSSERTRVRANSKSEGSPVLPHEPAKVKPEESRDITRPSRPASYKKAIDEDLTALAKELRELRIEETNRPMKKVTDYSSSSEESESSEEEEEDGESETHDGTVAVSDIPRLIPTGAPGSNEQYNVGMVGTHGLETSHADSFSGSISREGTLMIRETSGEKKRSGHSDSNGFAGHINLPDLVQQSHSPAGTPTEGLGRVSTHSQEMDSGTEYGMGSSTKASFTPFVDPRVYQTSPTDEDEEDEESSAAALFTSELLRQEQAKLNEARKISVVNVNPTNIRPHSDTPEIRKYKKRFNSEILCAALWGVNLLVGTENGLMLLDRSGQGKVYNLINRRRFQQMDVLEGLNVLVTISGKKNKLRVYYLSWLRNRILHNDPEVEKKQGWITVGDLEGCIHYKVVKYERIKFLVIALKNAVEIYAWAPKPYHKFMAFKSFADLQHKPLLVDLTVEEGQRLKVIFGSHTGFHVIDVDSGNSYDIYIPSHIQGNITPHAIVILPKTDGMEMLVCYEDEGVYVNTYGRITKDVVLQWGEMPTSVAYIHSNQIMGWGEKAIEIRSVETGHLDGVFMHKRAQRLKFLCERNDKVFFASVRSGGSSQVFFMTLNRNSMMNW

Results are given in words; binding and its absence hold for the method and conditions named. In cells and extracts the contact can be indirect. Some binding calls cover weakened binding; strength is not graded here.

As to “Traf2- and Nck-interacting kinase (from UniProt Q9UKE5 1-1360)”, the binding entry was “binds”.
